Laboratory results as given in patent US20260266848A1, “COMPOSITIONS AND METHODS FOR DIAGNOSING AND TREATING DYSTONIA” (Duke University, priority 2023, published 2026).

B1: TUBB1 (protein, UniProt Q9H4B7 1-451, looked up)
Tubulin beta-1 chain: MREIVHIQIGQCGNQIGAKFWEMIGEEHGIDLAGSDRGASALQLERISVYYNEAYGRKYVPRAVLVDLEPGTMDSIRSSKLGALFQPDSFVHGNSGAGNNWAKGHYTEGAELIENVLEVVRHESESCDCLQGFQIVHSLGGGTGSGMGTLLMNKIREEYPDRIMNSFSVMPSPKVSDTVVEPYNAVLSIHQLIENADACFCIDNEALYDICFRTLKLTTPTYGDLNHLVSLTMSGITTSLRFPGQLNADLRKLAVNMVPFPRLHFFMPGFAPLTAQGSQQYRALSVAELTQQMFDARNTMAACDLRRGRYLTVACIFRGKMSTKEVDQQLLSVQTRNSSCFVEWIPNNVKVAVCDIPPRGLSMAATFIGNNTAIQEIFNRVSEHFSAMFKRKAFVHWYTSEGMDINEFGEAENNIHDLVSEYQQFQDAKAVLEEDEEVTEEAEMEPEDKGH
B2: USP2 (protein, UniProt O75604 1-605, looked up)
Ubiquitin carboxyl-terminal …: MSQLSSTLKRYTESARYTDAHYAKSGYGAYTPSSYGANLAASLLEKEKLGFKPVPTSSFLTRPRTYGPSSLLDYDRGRPLLRPDITGGGKRAESQTRGTERPLGSGLSGGSGFPYGVTNNCLSYLPINAYDQGVTLTQKLDSQSDLARDFSSLRTSDSYRIDPRNLGRSPMLARTRKELCTLQGLYQTASCPEYLVDYLENYGRKGSASQVPSQAPPSRVPEIISPTYRPIGRYTLWETGKGQAPGPSRSSSPGRDGMNSKSAQGLAGLRNLGNTCFMNSILQCLSNTRELRDYCLQRLYMRDLHHGSNAHTALVEEFAKLIQTIWTSSPNDVVSPSEFKTQIQRYAPRFVGYNQQDAQEFLRFLLDGLHNEVNRVTLRPKSNPENLDHLPDDEKGRQMWRKYLEREDSRIGDLFVGQLKSSLTCTDCGYCSTVFDPFWDLSLPIAKRGYPEVTLMDCMRLFTKEDVLDGDEKPTCCRCRGRKRCIKKFSIQRFPKILVLHLKRFSESRIRTSKLTTFVNFPLRDLDLREFASENTNHAVYNLYAVSNHSGTTMGGHYTAYCRSPGTGEWHTFNDSSVTPMSSSQVRTSDAYLLFYELASPPSRM
B3: GP9 (protein, UniProt P14770 17-177, looked up)
Platelet glycoprotein IX: TKDCPSPCTCRALETMGLWVDCRGHGLTALPALPARTRHLLLANNSLQSVPPGAFDHLPQLQTLDVTQNPWHCDCSLTYLRLWLEDRTPEALLQVRCASPSLAAHGPLGRLTGYQLGSCGWQLQASWVRPGVLWDVALVAVAALGLALLAGLLCATTEALD
B4: ZYX (protein, UniProt Q15942 2-572, looked up)
Zyxin: AAPRPSPAISVSVSAPAFYAPQKKFGPVVAPKPKVNPFRPGDSEPPPAPGAQRAQMGRVGEIPPPPPEDFPLPPPPLAGDGDDAEGALGGAFPPPPPPIEESFPPAPLEEEIFPSPPPPPEEEGGPEAPIPPPPQPREKVSSIDLEIDSLSSLLDDMTKNDPFKARVSSGYVPPPVATPFSSKSSTKPAAGGTAPLPPWKSPSSSQPLPQVPAPAQSQTQFHVQPQPQPKPQVQLHVQSQTQPVSLANTQPRGPPASSPAPAPKFSPVTPKFTPVASKFSPGAPGGSGSQPNQKLGHPEALSAGTGSPQPPSFTYAQQREKPRVQEKQHPVPPPAQNQNQVRSPGAPGPLTLKEVEELEQLTQQLMQDMEHPQRQNVAVNELCGRCHQPLARAQPAVRALGQLFHIACFTCHQCAQQLQGQQFYSLEGAPYCEGCYTDTLEKCNTCGEPITDRMLRATGKAYHPHCFTCVVCARPLEGTSFIVDQANRPHCVPDYHKQYAPRCSVCSEPIMPEPGRDETVRVVALDKNFHMKCYKCEDCGKPLSIEADDNGCFPLDGHVLCRKCHTARAQT
B5: RAP2B (protein, UniProt P61225 1-180, looked up)
Ras-related protein Rap-2b: MREYKVVVLGSGGVGKSALTVQFVTGSFIEKYDPTIEDFYRKEIEVDSSPSVLEILDTAGTEQFASMRDLYIKNGQGFILVYSLVNQQSFQDIKPMRDQIIRVKRYERVPMILVGNKVDLEGEREVSYGEGKALAEEWSCPFMETSAKNKASVDELFAEIVRQMNYAAQPNGDEGCCSAC
B6: PCDHB15 (protein, UniProt Q9Y5E8 27-787, looked up)
Protocadherin beta-15: GWEPRRYSVMEETERGSFVANLANDLGLGVGELAERGARVVSEDNEQGLQLDLQTGQLILNEKLDREKLCGPTEPCIMHFQVLLKKPLEVFRAELLVTDINDHSPEFPEREMTLKIPETSSLGTVFPLKKARDLDVGSNNVQNYNISPNSHFHVSTRTRGDGRKYPELVLDTELDREEQAELRLTLTAVDGGSPPRSGTVQILILVLDANDNAPEFVQALYEVQVPENSPVGSLVVKVSARDLDTGTNGEISYSLYYSSQEIDKPFELSSLSGEIRLIKKLDFETMSSYDLDIEASDGGGLSGKCSVSVKVLDVNDNFPELSISSLTSPIPENSPETEVALFRIRDRDSGENGKMICSIQDDVPFKLKPSVENFYRLVTEGALDRETRAEYNITITITDLGTPRLKTEQSITVLVSDVNDNAPAFTQTSYTLFVRENNSPALHIGSVSATDRDSGTNAQVTYSLLPPRDPHLPLTSLVSINTDNGHLFALQSLDYEALQAFEFRVGATDRGFPALSSEALVRVLVLDANDNSPFVLYPLQNGSAPCTELVPRAAEPGYLVTKVVAVDGDSGQNAWLSYQLLKATEPGLFGVWAHNGEVRTARLLSERDVAKHRLVVLVKDNGEPPRSATATLQVLLVDGFSQPYLPLPEAAPAQAQADSLTVYLVVALASVSSLFLFSVFLFVAVRLCRRSRAASVGRCSVPEGPFPGHLVDVSGTGTLSQSYQYEVCLTGGSESNDFKFLKPIFPNIVSQDSRRKSEFLE
B7: RBM3 (protein, UniProt P98179 1-157, looked up)
RNA-binding protein 3: MSSEEGKLFVGGLNFNTDEQALEDHFSSFGPISEVVVVKDRETQRSRGFGFITFTNPEHASVAMRAMNGESLDGRQIRVDHAGKSARGTRGGGFGAHGRGRSYSRGGGDQGYGSGRYYDSRPGGYGYGYGRSRDYNGRNQGGYDRYSGGNYRDNYDN
B8: SELENOF (protein, UniProt O60613 32-165, looked up)
Selenoprotein F: FGAEFSSEACRELGFSSNLLCSSCDLLGQFNLLQLDPDCRGCCQEEAQFETKKLYAGAILEVCGUKLGRFPQVQAFVRSDKPKLFRGLQIKYVRGSDPVLKLLDDNGNIAEELSILKWNTDSVEEFLSEKLERI
B9: AP1B1 (protein, UniProt Q10567 1-949, looked up)
AP-1 complex subunit beta-1: MTDSKYFTTTKKGEIFELKAELNSDKKEKKKEAVKKVIASMTVGKDVSALFPDVVNCMQTDNLELKKLVYLYLMNYAKSQPDMAIMAVNTFVKDCEDPNPLIRALAVRTMGCIRVDKITEYLCEPLRKCLKDEDPYVRKTAAVCVAKLHDINAQLVEDQGFLDTLKDLISDSNPMVVANAVAALSEIAESHPSSNLLDLNPQSINKLLTALNECTEWGQIFILDCLANYMPKDDREAQSICERVTPRLSHANSAVVLSAVKVLMKFMEMLSKDLDYYGTLLKKLAPPLVTLLSAEPELQYVALRNINLIVQKRPEILKHEMKVFFVKYNDPIYVKLEKLDIMIRLASQANIAQVLAELKEYATEVDVDFVRKAVRAIGRCAIKVEQSAERCVSTLLDLIQTKVNYVVQEAIVVIKDIFRKYPNKYESVIATLCENLDSLDEPEARAAMIWIVGEYAERIDNADELLESFLEGFHDESTQVQLQLLTAIVKLFLKKPTETQELVQQVLSLATQDSDNPDLRDRGYIYWRLLSTDPVAAKEVVLAEKPLISEETDLIEPTLLDELICYIGTLASVYHKPPSAFVEGGRGVVHKSLPPRTASSESAESPETAPTGAPPGEQPDVIPAQGDLLGDLLNLDLGPPVSGPPLATSSVQMGAVDLLGGGLDSLMGDEPEGIGGTNFVAPPTAAVPANLGAPIGSGLSDLFDLTSGVGTLSGSYVAPKAVWLPAMKAKGLEISGTFTRQVGSISMDLQLTNKALQVMTDFAIQFNRNSFGLAPAAPLQVHAPLSPNQTVEISLPLSTVGSVMKMEPLNNLQVAVKNNIDVFYFSTLYPLHILFVEDGKMDRQMFLATWKDIPNENEAQFQIRDCPLNAEAASSKLQSSNIFTVAKRNVEGQDMLYQSLKLTNGIWVLAELRIQPGNPSCTDLELSLKCRAPEVSQHVYQAYETILKN
B10: KCNB2 (protein, UniProt Q92953 1-911, looked up)
Potassium voltage-gated …: MAEKAPPGLNRKTSRSTLSLPPEPVDIIRSKTCSRRVKINVGGLNHEVLWRTLDRLPRTRLGKLRDCNTHESLLEVCDDYNLNENEYFFDRHPGAFTSILNFYRTGKLHMMEEMCALSFGQELDYWGIDEIYLESCCQARYHQKKEQMNEELRREAETMREREGEEFDNTCCPDKRKKLWDLLEKPNSSVAAKILAIVSILFIVLSTIALSLNTLPELQETDEFGQLNDNRQLAHVEAVCIAWFTMEYLLRFLSSPNKWKFFKGPLNVIDLLAILPYYVTIFLTESNKSVLQFQNVRRVVQIFRIMRILRILKLARHSTGLQSLGFTLRRSYNELGLLILFLAMGIMIFSSLVFFAEKDEDATKFTSIPASFWWATITMTTVGYGDIYPKTLLGKIVGGLCCIAGVLVIALPIPIIVNNFSEFYKEQKRQEKAIKRREALERAKRNGSIVSMNLKDAFARSMELIDVAVEKAGESANTKDSADDNHLSPSRWKWARKALSETSSNKSFENKYQEVSQKDSHEQLNNTSSSSPQHLSAQKLEMLYNEITKTQPHSHPNPDCQEKPERPSAYEEEIEMEEVVCPQEQLAVAQTEVIVDMKSTSSIDSFTSCATDFTETERSPLPPPSASHLQMKFPTDLPGTEEHQRARGPPFLTLSREKGPAARDGTLEYAPVDITVNLDASGSQCGLHSPLQSDNATDSPKSSLKGSNPLKSRSLKVNFKENRGSAPQTPPSTARPLPVTTADFSLTTPQHISTILLEETPSQGDRPLLGTEVSAPCQGPSKGLSPRFPKQKLFPFSSRERRSFTEIDTGDDEDFLELPGAREEKQVDSSPNCFADKPSDGRDPLREEGSVGSSSPQDTGHNCRQDIYHAVSEVKKDSSQEGCKMENHLFAPEIHSNPGDTGYCPTRETSM

Tested on: DYT1 patient plasma derived EVs
Experiment: Plasma-derived EV proteomics (ExoQuick ULTRA, DIA LC/MS/MS), DYT1 vs Healthy Controls
Set-up: species or system human
Conditions: DYT1 patients as compared to healthy controls
How it was run: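 Quantitative LC/MS/MS in data-independent acquisition on an Orbitrap Astral (4 m/z windows over m/z 380-980, HCD 27%), 500 ng of each EV sample. EVs were isolated from plasma by ExoQuick ULTRA, separated by EvoSep SPD30 gradient at 50 C.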

Point of comparison: B10, Log2FC 2.4057. Against it:
- B1 — lower, 1.1985
- B2 — lower, −1.4420
- B3 — lower, 1.4570
- B4 — lower, 0.9322
- B5 — lower, 1.6659
- B6 — lower, −1.3119
- B7 — lower, −1.3483
- B8 — lower, −0.9996
- B9 — lower, −1.3386

Same assay, conditions: Hs. Plasma EVs (DYT1/WT)

In the case of B7, the Directionality is reported as “DOWN”.
B9 was tested, and the Directionality was “DOWN”.

Same assay, conditions: Hs. Plasma EVs (DYT1/WT); protein level, human patient derived EVs by genotype

Point of comparison: B1, Log2_FC 1.199. Against it:
- B4 — lower, 0.9322
- B5 — higher, 1.666
- B7 — lower, -1.348
- B9 — lower, -1.339

Same assay, conditions: directionality of protein change, human plasma derived EVs, DYT1 vs WT(HC)

B7 was tested, and the “Hs. Plasma EVs (DYT1/WT)” value was “DOWN”.
With B9 the “Hs. Plasma EVs (DYT1/WT)” value was “DOWN”.

Same assay, conditions: protein abundance, DYT1 patients

Point of comparison: B2, “Mean DYT1” value 3.197. Against it:
- B1 — higher, 6.368
- B3 — higher, 8.645
- B4 — higher, 4.425
- B5 — higher, 5.827
- B6 — higher, 10.301
- B7 — higher, 3.694
- B8 — higher, 6.279
- B9 — higher, 4.856
- B10 — higher, 7.576

Same assay, conditions: protein abundance, healthy controls (HC)

Point of comparison: B6, “Mean HC” value 11.61. Against it:
- B1 — lower, 5.17
- B2 — lower, 4.64
- B3 — lower, 7.19
- B4 — lower, 3.49
- B5 — lower, 4.16
- B7 — lower, 5.04
- B8 — lower, 7.28
- B9 — lower, 6.19
- B10 — lower, 5.17
